In paper PMC7782846 one finds binding data, which are given here for one molecule.

The target of this assay is T1, α-COP-FLAG (WT), mouse (mouse) (UniProt Q8CIE6).
T1 sequence: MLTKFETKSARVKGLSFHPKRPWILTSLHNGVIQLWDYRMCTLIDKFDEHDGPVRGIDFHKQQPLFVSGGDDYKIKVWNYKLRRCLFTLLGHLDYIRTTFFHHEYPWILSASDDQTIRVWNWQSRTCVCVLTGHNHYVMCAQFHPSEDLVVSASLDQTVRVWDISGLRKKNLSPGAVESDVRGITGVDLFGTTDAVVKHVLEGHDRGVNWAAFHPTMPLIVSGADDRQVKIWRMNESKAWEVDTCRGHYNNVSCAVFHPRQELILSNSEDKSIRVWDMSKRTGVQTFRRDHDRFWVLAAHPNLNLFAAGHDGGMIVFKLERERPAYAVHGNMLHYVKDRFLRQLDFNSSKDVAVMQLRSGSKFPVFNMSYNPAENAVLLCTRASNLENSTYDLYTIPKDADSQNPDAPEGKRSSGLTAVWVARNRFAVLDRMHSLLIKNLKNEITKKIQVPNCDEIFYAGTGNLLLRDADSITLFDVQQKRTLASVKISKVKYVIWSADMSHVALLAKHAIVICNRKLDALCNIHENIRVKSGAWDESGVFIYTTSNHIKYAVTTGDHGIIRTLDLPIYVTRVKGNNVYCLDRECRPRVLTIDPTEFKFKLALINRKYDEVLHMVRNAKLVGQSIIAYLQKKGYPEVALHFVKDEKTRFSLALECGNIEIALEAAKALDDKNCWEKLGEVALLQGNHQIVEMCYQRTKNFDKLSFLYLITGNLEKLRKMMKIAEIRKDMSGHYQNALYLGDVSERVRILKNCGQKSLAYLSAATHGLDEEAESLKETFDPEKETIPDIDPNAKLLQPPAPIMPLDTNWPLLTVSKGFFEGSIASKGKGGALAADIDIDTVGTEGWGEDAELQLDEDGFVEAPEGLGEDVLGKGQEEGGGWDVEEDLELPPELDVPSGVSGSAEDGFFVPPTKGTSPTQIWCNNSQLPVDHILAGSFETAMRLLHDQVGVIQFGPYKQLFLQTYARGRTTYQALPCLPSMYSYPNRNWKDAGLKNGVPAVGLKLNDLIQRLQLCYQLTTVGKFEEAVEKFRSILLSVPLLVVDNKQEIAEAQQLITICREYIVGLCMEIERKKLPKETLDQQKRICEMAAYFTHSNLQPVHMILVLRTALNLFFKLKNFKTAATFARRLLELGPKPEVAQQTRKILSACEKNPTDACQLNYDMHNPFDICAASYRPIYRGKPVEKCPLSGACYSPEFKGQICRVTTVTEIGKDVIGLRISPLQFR
As to the kind of experiment: co-IP; α-COP-FLAG immunoprecipitated with anti-FLAG from lysates of transfected HEK293T cells (1% CHAPS, 150 mM NaCl, pH 7.2), western blot.

No constants are given. Whether binding was seen depends on the method and setting. In cells and extracts the contact can be indirect. Some results given as binding are weak or reduced against the parent protein; the word gives no strength. Tags and fused reporters may be left off the sequences shown.

B1: mutant Surf4 (K265A/K266A/K267A), mouse (protein, UniProt Q64310 1-269)
chain: MGQNDLMGTAEDFADQFLRVTKQYLPHVARLCLISTFLEDGIRMWFQWSEQRDYIDTTWSCGYLLASSFVFLNLLGQLTGCVLVLSRNFVQYACFGLFGIIALQTIAYSILWDLKFLMRNLALGGGLLLLLAESRSEGKSMFAGVPTMRESSPKQYMQLGGRVLLVLMFMTLLHFDASFFSIIQNIVGTALMILVAIGFKTKLAALTLVVWLFAINVYFNAFWTIPVYKPMHDFLKYDFFQTMSVIGGLLLVVALGPGGVSMDEAAAEW
In the case of B1, the binding result is reported as “binds”.
